Results are given in words; binding and its absence hold for the method and conditions named. Binding seen in cells or lysates may run through a third protein. Here binding means that the protein was enriched with, or labelled near, the bait; the list need not be complete.
Molecular target: T1, RIOK3 (bait of the mass spectrometry analysis) (UniProt O14730)
T1 sequence: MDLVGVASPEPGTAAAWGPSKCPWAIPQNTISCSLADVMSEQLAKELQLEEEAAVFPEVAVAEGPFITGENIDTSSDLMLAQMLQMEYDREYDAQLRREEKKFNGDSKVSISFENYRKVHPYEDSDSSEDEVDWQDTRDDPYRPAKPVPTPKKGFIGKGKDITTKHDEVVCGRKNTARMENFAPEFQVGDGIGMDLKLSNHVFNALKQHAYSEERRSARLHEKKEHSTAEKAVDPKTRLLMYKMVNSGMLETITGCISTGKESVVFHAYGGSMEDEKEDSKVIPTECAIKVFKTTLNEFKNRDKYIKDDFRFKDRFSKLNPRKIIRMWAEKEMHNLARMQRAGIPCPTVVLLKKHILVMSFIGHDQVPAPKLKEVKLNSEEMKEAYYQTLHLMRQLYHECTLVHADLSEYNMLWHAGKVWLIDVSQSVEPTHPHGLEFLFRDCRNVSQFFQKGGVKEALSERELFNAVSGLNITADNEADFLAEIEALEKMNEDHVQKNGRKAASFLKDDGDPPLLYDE
Test: affinity purification with mass spectrometry; mass spectrometry analysis to identify binding partners of RIOK3; bait, cells and conditions not told

binding: binds
Substance: heat shock protein 90α (from UniProt P07900 1-732)

Reference: paper PMC10920805
